Laboratory results taken from publication PMC5729022.
These are yes or no findings as the source states them, for the method shown. Some binding calls cover weakened binding; strength is not graded here.

Amino acid sequences for entries named in this document (tags omitted). A change or cut given only in a name is not applied to a line headed by its entry. Residues count along the entry.
UniProt P02453: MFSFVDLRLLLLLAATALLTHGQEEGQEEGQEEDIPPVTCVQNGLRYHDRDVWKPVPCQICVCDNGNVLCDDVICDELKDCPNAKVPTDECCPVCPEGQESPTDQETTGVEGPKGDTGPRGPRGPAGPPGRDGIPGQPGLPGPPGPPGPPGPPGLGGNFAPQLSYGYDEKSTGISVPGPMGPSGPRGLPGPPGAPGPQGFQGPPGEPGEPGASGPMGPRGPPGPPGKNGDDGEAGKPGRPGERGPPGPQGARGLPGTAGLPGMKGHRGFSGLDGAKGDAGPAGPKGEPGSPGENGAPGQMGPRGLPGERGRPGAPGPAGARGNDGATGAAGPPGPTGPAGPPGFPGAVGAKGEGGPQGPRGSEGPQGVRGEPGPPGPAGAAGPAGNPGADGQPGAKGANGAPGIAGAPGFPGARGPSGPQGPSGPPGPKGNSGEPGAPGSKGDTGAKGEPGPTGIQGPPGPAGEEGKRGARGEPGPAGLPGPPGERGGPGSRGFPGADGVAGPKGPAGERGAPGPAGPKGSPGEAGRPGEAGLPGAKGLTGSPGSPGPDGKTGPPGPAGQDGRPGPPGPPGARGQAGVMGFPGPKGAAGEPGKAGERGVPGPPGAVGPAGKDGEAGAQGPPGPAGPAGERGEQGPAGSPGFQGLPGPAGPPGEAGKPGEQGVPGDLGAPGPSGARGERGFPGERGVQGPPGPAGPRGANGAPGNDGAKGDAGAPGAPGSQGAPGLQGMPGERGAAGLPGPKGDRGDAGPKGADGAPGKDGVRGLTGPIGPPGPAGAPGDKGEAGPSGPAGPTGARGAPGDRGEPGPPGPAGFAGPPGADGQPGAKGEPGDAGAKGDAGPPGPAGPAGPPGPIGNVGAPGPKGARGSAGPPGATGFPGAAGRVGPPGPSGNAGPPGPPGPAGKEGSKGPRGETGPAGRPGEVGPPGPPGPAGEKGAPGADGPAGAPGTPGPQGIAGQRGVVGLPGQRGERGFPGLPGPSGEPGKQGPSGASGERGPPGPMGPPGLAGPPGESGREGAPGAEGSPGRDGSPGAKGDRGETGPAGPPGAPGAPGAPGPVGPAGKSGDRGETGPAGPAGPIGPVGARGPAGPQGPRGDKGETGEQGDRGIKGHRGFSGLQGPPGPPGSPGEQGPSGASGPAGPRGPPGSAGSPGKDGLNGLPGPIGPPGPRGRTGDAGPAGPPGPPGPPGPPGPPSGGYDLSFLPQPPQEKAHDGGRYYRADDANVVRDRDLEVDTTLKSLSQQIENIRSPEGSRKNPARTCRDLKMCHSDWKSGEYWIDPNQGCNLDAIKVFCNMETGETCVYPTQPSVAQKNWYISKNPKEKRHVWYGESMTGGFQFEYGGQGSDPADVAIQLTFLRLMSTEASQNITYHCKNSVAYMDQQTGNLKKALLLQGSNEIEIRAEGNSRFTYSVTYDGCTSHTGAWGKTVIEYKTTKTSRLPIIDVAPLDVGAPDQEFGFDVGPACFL
UniProt P02465: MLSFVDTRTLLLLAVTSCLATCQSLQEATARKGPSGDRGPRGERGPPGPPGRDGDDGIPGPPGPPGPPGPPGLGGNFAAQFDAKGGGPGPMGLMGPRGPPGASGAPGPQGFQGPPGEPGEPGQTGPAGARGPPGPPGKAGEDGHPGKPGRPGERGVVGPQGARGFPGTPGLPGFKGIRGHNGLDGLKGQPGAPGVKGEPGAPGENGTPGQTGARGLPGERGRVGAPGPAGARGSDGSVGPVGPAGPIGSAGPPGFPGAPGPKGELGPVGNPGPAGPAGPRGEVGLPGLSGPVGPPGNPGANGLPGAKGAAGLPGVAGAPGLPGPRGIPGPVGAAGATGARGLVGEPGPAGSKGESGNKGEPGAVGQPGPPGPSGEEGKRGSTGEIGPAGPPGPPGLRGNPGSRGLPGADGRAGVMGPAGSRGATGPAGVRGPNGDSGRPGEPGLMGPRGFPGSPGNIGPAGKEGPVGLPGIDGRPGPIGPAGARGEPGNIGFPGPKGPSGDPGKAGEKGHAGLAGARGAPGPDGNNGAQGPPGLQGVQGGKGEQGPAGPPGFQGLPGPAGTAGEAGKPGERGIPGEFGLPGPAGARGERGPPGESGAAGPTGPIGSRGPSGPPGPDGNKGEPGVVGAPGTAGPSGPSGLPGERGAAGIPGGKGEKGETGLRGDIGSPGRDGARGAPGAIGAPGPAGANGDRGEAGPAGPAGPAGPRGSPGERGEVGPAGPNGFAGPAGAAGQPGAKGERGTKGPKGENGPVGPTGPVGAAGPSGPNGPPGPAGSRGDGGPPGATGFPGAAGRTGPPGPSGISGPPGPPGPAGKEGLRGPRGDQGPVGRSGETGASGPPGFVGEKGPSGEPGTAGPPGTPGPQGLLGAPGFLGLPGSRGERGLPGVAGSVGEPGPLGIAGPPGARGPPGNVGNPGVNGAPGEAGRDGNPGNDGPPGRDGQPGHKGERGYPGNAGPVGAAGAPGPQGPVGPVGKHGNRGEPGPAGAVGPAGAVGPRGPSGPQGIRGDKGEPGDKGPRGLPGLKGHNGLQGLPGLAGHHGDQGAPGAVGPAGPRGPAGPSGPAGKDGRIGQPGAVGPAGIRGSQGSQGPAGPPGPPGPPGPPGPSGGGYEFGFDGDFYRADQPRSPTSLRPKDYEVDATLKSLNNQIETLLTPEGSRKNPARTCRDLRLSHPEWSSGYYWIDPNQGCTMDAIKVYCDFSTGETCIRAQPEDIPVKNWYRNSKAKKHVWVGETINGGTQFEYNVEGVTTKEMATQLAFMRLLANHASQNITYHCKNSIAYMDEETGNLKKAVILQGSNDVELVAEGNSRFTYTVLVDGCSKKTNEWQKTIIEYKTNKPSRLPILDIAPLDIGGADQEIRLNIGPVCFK
UniProt P56199, residues 169-363: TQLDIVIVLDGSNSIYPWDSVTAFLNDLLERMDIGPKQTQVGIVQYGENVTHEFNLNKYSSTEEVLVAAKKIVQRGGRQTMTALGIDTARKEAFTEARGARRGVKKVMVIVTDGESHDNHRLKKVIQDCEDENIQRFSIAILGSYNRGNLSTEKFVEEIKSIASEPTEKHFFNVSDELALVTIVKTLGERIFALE

Target: collagen type I (Col I) coating of the I domain binding assay (bovine) (UniProt P02453+P02465)
Test: ELISA; collagens or peptides coated on Immulon 2HB wells (10 µg/ml in 10 mM acetic acid, overnight, 4 °C), blocked with 5% BSA; GST-I domain at 10 µg/mL in TBS (50 mM TRIS, 140 mM NaCl, pH 7.4, 1 mg/mL BSA) with 5 mM MgCl2, 1 h, room temperature; GST detected with HRP conjugate, A450; both purified

binding: binds
Substance: recombinant human integrin α1 I domain (GST fusion) (from UniProt P56199 169-363) (domain or fragment)
